Source: article PMC8614764, “Sulfane Sulfur Is a Strong Inducer of the Multiple Antibiotic Resistance Regulator MarR in Escherichia coli” (Antioxidants, 2021)
The exact form of at least one protein or probe is not confirmed. Weaker means in comparison with the reference protein, sequence or condition of that experiment.

Protein sequences, listed by entry. Tags and fused reporters are not part of them. Lines headed by an entry give the natural chain unless they say otherwise; changes in a name come on top.
UniProt P27245: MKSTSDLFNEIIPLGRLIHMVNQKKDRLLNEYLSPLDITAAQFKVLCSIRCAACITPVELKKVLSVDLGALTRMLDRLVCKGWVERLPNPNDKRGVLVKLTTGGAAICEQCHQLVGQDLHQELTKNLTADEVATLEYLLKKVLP

Target: MarR, H2Sn-treated (Escherichia coli MG1655) (UniProt P27245)
Experiment: EMSA
Details: complete shift at 600 nM, single-dimer complex not detected, EMSA: 10 mM Tris, 50 mM KCl, 5% glycerin, pH 8.0, 25 C, 30 min, 20 nM probe, 15 uL, 6% native PAGE, recombinant protein, protein details: N-terminal His (pET-30a), label: none (SYBR green I stain), probe letters rebuilt from the primers and the genome

Does “CATCGCATTGAACAAAACTTGAACCGATTTAGCAAAACGTGGCATCGGTCAATTCATTCATTTGACTTATACTTGCCTGGGCAATATTATCCCCTGCAAC (double strand) [marRAB promoter EMSA probe]” bind?
Result: binds more weakly
